These are yes or no findings as the source states them, for the method shown. Binding can be weak; no strength is given.
Target: T1, Integrin-alpha1 (mouse (endogenous in NIH3T3)) (UniProt Q3V3R4)
T1 sequence: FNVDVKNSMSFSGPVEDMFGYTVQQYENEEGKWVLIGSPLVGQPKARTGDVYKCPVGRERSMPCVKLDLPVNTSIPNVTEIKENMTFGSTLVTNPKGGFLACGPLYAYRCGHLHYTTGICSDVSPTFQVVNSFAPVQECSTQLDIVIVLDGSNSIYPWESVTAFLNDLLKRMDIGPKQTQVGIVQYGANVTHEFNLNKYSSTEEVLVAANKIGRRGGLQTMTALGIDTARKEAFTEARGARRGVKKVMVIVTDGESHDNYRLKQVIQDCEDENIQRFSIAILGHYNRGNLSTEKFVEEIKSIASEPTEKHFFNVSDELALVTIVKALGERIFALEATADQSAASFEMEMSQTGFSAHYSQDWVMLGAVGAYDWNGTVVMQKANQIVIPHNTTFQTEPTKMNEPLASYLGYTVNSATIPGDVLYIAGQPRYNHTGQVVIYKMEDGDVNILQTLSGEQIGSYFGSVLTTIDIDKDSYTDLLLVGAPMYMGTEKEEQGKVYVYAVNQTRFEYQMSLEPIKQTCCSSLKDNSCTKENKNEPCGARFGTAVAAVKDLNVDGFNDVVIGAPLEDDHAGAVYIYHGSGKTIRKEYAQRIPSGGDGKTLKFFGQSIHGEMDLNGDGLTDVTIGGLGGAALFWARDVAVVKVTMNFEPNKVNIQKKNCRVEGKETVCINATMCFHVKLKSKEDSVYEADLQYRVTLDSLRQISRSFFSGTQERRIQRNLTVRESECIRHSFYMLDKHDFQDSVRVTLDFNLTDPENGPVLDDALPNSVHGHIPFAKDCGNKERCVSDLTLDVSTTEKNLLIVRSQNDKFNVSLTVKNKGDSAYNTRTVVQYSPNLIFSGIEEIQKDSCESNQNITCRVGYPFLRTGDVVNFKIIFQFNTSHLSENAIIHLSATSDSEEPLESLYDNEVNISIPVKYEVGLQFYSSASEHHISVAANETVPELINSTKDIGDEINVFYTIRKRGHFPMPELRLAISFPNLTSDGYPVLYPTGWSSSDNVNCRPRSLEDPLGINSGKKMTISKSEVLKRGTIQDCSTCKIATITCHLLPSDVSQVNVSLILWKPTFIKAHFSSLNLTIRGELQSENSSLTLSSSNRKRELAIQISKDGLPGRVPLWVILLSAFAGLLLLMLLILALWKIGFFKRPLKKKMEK
Test: antibody array; Signal Transduction AntibodyArray (Hypromatrix HM3000, 450 spots of antibodies) challenged with wt-NIH3T3 cell lysate; proteins captured by their antibodies, ROLP held with them detected with digoxigenin-labelled ROLP-specific IgGs

binding: binds weakly
Substance: Rolly Protein (ROLP) (mouse (endogenous in NIH3T3))
